Values quoted from earlier work as cited in US10875895B2, “Antibacterial cell-penetrating peptides” (Purdue Research Foundation, priority 2018, dated 2020).
At least one compound was matched to its structure with a doubt left.

Tested on: M. tuberculosis
Details: within THP-1 macrophages, after 10 days; cited from earlier work

In the case of NC[C@H]1O[C@H](O[C@H]2[C@H](O)[C@@H](O[C@H]3O[C@H](CO)[C@@H](O)[C@H](N)[C@H]3O)[C@H](N)C[C@@H]2N)[C@H](O)[C@@H](O)[C@@H]1O [kanamycin], the “reduction in M. tuberculosis levels” value is given as “about 50%”.
